Assay results as given in paper PMC11036802.
No constants are given. Whether binding was seen depends on the method and setting. In cells and extracts the contact can be indirect. A yes stands for co-enrichment or nearness to the bait. Other partners may have been found. Sequences can lack the tags named with a protein.

T1: PfEAF2::GFP (endogenous PfEAF2 tagged with GFP) (P. falciparum (endogenous in 3D7 parasites)) (UniProt C6KTC1)
T1 sequence: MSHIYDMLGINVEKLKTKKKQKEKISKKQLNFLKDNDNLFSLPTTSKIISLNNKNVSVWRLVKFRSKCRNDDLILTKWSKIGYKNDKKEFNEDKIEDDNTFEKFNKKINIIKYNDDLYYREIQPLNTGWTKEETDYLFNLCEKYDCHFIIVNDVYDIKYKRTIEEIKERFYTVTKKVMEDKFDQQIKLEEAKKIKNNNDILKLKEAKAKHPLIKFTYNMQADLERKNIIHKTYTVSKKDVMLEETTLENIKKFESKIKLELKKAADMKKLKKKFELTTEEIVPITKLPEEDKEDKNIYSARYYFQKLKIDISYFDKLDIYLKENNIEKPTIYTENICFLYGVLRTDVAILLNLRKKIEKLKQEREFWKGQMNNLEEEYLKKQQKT

B1: PfSWC2 (protein, UniProt Q8IKJ7 1-705)
chain: MTKKRGDGVKSISFVLEKESNNIMFDKINEEQDETEEESEMNVDESSENEYLENVSEENESGDNQTGENDSEEEDSEEDEDYELKNYGIALELPQRKNRGKNMKKLIGEDLEKDEQFWNDSIWEEEEIDEEYVNSEGEDEYVDITDSDFDDDEDNEEDEEEEVDDDEQNKRGARRHSIEYEERKNNNKKNFAYLEKLKKEKQNKIMKYNLMKQKQNELKKNKQLISNKSKKSEDDAEEEQKEEVIKTKEQLKEERRLKKKKKLEQAYLYLNRSTRDTTRRKTEYMEKVFEMRKIKKENRFKKFGARRREKKNMQREMTREERLEEAKITEQYNIQSLLQLQAWEEEKKKYIENKKVIHYKPQNVFISFKYSKDNIFPTNEKLTYTQNLYDYYLYNENRTIKNDIMNQVKKEINVNIINNKQIVKVEQELHNNHEENINSQKKNSSMSINIPPPIIPDNKEKQINNDKNTILSNRNLNDNTNDYPNDYPNDYPNDNTKDEEKNGLILNPMNLENLDQCEDLNIQYLSQIDDINFDNLNKNKSNNNNNNNILNSNNENMYDDNKNKSNVLNQDIKKNKILAIPNYEEKQYYIVTNENELNIYSNFNDQKDNIKELKNQKQEKQKICAITNLEGKYFDPLTQQYYNNAEAFKKLRLYYHQISYNNLNKDICLTVKHFKNKLAEIEQYVNSNNNHNSCNDIPCNNNVKH
B2: PfRVB2 (protein, UniProt Q8ID85 1-483)
chain: MKLEEVKDIQKIERIGAHSHIRGLGLNDCLDARYCSEGMIGQMSARKAAGIVLRMIKEGRISGRAILLAGQPGTGKTAIAMGIAKALGEDTPFTHISGSEVYSLEMSKTEALTQAFRRSIGVRVKEESEVIEGEVVEIEIEKFNERDINNKNKKLGKMILKTTEMETLYDLGSKMIEALQKENITAGDVICIDKGTGKITKIGKSFARSKDYDAMDPNTLFVQCPEGELQKRKEVVHTVTLHDIDAINSRTQGFLALFSGDTGEIKNEIREHIDMKINEWQEDEKAEIVPGVLFIDEVHMLDIECFSYLNRALESEQSPIVIMATNRGITHIRGTDYKAPHGIPLDLLDRTLIIPTYPYKHQDILKILEQRAEEEDVDIDEYAKELLCKIASESSLRYALHLITLANLVSKKRKATEVTVQDVRRVYNLFIDVKRSTQYLIEYQNEFMFSELPKEELSVKEEDSSEEKRELHEKNSENSSTSN
B3: PfRVB1 (protein, UniProt Q8IIU3 1-475)
chain: MEINISNITNSSNNKKERVNIHSHIKGLGVNTNIYLHENEISLSDEKYSMFFDNSCGLVGQFKAREASLFLVDLIKQKKLAGKCILLAGPSGSGKSALAIGISREINRKMPFVFLSGSEVYSNEIKKTEVILEAFRKSIHIKIKEEKLVYEGEVVDMVVEENECLYSLNKAKQINAIIITLKSVKGSKTLRLAPKIHEQIAREKIKIGDVIYIETNTGHVKRLGRCNDYAKEYDIEFDEYVSLPKGEVHKKKEVVQQISLHDIDLANANPTVGEDLASVLNSYLRPKKTEITEKLRVEINKTVNKFLESGLAEIIPGVLYIDEAHMLDIECFSYLNRAIESPLAPILIMATNRGICTVKGTDNIEPHGIPVDLLDRLIIIKTFPYTLKEIVQILALRAQTEKINITEEGMNYLAKIGIQSSLRFAMLLLEPSRILATLEGNTIIDIKHIEQADELFMDAKTSAHRVVDQSNKFVN
B4: PfMYST (protein, UniProt Q8III2 1-608)
chain: MVLGGKNENKVNVIKGAGSIGKYIMKENGSKIKEVGEWNNSSENENSDNNNNDREDNIKEKVDNNNKNDDNNNNDREDNIKEKVDNNNNNDDNNNDNNNNNKSDNNNNKSDNNNNKSDNYNNKIGDVSNIPSTNTSTVSNKIQGKGSVSYKSKEKTGDHSSNNKNTKGNNNKVRTSGKVINSLSKYSDSYALIFPNALPVKQVLWGLDPLNKVWRYCSIVYARPKNKVLNDTNFMFPLNMNKNEIINKVNNELNNNNSVSMSEGDYDYYVHWEKFDRRLDCWLAYENLRLLDKEPDDGLPLIKDNDNVSDHEHAGIDKEYLREHEENTKLKTINQIRFGKYLIDTWYFSPYPKEYQNIDILYICEFCLSFFKEYSELKRHIEKCEIRHPPGNEIYREEKISIFEIDGSYFRIYCENLCFLSKLFLDHKTLKHRVNLFLFYVITEYDEYGYHITGYFSKEKYSKNNVSCILTLPQHQKKGYGKFLINFSYFLSQTEKRTGTPERPLSDLGVASYMAYWYETILKVLINYEQLSIQELSEITSIETNDIISCLEEKDIFKNSLNGLDSFYYINPKQLEFILNKLKQTNNTQLSKNKLHWVSYDYYLALYE

Molecular target: T1, PfEAF2::GFP (endogenous PfEAF2 tagged with GFP) (P. falciparum (endogenous in 3D7 parasites))
Experiment: affinity purification with mass spectrometry; single-step pulldown of PfEAF2::GFP with GFP-trap beads from lysates of 10^9 parasites; LC-MS/MS, same SAINT thresholds; three replicates

binding, binds:
B1
B2
B3
B4
